Numbering of substitutions follows the chain as printed. These are yes or no findings as the source states them, for the method shown. In cells and extracts the contact can be indirect. Some entries that bind do so weakly or less than the wild type. Where a sequence is shown, tags or fusion partners need not be part of it.
Key:
[1] = biological target: T1, MBP-Isc10^1-170 (S. cerevisiae) (UniProt P32645); experiment: pull-down; MBP-Isc10 forms coexpressed in bacteria with Smk1 alone or with Ssp2 alone; material retained on amylose-agarose beads analysed by immunoblot
T1 sequence: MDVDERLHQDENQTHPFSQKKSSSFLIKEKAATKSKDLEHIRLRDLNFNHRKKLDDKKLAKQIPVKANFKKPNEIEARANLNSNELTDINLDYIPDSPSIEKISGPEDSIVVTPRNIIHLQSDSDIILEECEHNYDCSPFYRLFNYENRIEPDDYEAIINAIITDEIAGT

[2] = biological target: T2, MBP-Isc10^181-267 (S. cerevisiae) (UniProt P32645); experiment: as above
T2 sequence: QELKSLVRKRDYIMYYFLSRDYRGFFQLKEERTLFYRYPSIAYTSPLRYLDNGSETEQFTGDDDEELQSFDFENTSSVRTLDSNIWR

[3] = biological target: T3, MBP-Isc10-S97D (S. cerevisiae) (UniProt P32645); experiment: pull-down; MBP-Isc10 forms coexpressed with Smk1, Ssp2^KAD-GST and Cak1 in E. coli BL-21 DE3; soluble extract bound to amylose beads at 4 °C, washed with lysis buffer (25 mM Tris-Cl pH 7.4, 5 mM MgCl2, 300 mM NaCl, 1 mM DTT, 0.5% NP-40); bound Smk1 and Ssp2 (GST) detected by immunoblot
T3 sequence: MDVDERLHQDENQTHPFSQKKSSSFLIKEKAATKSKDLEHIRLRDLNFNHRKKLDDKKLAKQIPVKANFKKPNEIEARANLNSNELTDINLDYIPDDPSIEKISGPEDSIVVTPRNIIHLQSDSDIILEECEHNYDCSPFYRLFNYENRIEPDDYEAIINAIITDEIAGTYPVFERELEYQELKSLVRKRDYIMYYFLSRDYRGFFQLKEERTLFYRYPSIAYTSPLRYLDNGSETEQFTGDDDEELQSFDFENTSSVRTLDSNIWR

[4] = biological target: T4, MBP-Isc10^146-203 (S. cerevisiae) (UniProt P32645); experiment: as above
T4 sequence: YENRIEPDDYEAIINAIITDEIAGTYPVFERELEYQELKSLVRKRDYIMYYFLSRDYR

[5] = biological target: T5, MBP-Isc10 (full-length Isc10, 1-267) (S. cerevisiae) (UniProt P32645); experiment: as above
T5 sequence: T3 sequence with D97S

Measured: binding

B1: Smk1 (enzyme, UniProt P41808 1-388)
chain: MNCTLTDNTRAINVASNLGAPQQRTIFAKERISIPGYYEIIQFLGKGAYGTVCSVKFKGRSPAARIAVKKISNIFNKEILLKRAIRELKFMNFFKGHKNIVNLIDLEIVTSSPYDGLYCYQELIDYDLAKVIHSSVQLSEFHIKYFLYQILCGLKYIHSADVIHRDLKPGNILCTLNGCLKICDFGLARGIHAGFFKCHSTVQPHITNYVATRWYRAPELLLSNQPYSKSVDIWAVGCILAEFYARKPVFMGRDSMHQIFEIIKVLGTPDKDILIKFGTIKAWNLGKNSNNPVYKKIPWSNIFPFASHEAINLIESLLHWDSTHRLNVEQAISHPFLNEVRKPDDEPVCLQGPFDFTYESELNSMSKLRDYLVEEVKNFKTDLSSSSL
binds: [1] | [2] | [3] | [4] | [5]

B2: Ssp2^KAD-GST (Ssp2 residues 137-371 fused to glutathione-S-transferase) (domain or fragment, UniProt Q08646 137-371)
chain: KGKVYSEESEVVDEKTAGSQNPALLKTRSISLNDIPRGTGISSVLSQVRGGSLERIIVYRYDTPERSLHKVDLFFLNYEGAQSFMRYAKTNIFKVNGVQLKPEWIFLESTYENIMKEQSVNRIIEEEKFISRCLIVKKSSTTAMPNKSNLNKGQTLENIDIQELEKDFQNFGEVLEITPIVSRKLCVSIFFYDISSAMRAMEEYEQKGSYLYNKYFKTWTIWYGKDITDQPCIDL
binds: [1] | [2] | [3] | [4] | [5]
